This note sets out measurements from publication PMC11962650.

Protein sequences, listed by entry. Tags and fused reporters are not part of them.
UniProt Q86U44: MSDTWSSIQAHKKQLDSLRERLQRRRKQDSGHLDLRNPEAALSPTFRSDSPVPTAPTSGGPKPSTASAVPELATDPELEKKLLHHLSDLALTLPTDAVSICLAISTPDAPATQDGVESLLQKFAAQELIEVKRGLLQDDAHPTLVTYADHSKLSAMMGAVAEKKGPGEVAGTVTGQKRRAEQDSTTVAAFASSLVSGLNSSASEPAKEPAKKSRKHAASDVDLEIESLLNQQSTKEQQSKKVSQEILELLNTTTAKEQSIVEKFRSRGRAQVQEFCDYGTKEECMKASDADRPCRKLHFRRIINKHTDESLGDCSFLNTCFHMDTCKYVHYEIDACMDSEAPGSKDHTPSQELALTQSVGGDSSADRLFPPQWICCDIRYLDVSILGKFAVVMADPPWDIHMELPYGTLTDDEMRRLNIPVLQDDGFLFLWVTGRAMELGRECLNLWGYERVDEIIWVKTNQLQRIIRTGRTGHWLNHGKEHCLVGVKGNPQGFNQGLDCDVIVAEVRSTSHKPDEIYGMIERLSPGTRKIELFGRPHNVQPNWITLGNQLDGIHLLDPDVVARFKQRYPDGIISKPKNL

The target in the experiment is methyltransferase‐like protein 3 (METTL3) (human) (UniProt Q86U44). The experiment in a line: co-IP; protein extracted in RIPA lysis buffer; co-IP with a Magna RIP RNA-Binding Protein Immunoprecipitation Kit; cells and precipitating antibody not stated.

These are yes or no findings as the source states them, for the method shown. Binding seen in cells or lysates may run through a third protein.

B1: PGC‐1α (protein, UniProt Q9UBK2-1 1-798)
chain: MAWDMCNQDSESVWSDIECAALVGEDQPLCPDLPELDLSELDVNDLDTDSFLGGLKWCSDQSEIISNQYNNEPSNIFEKIDEENEANLLAVLTETLDSLPVDEDGLPSFDALTDGDVTTDNEASPSSMPDGTPPPQEAEEPSLLKKLLLAPANTQLSYNECSGLSTQNHANHNHRIRTNPAIVKTENSWSNKAKSICQQQKPQRRPCSELLKYLTTNDDPPHTKPTENRNSSRDKCTSKKKSHTQSQSQHLQAKPTTLSLPLTPESPNDPKGSPFENKTIERTLSVELSGTAGLTPPTTPPHKANQDNPFRASPKLKSSCKTVVPPPSKKPRYSESSGTQGNNSTKKGPEQSELYAQLSKSSVLTGGHEERKTKRPSLRLFGDHDYCQSINSKTEILINISQELQDSRQLENKDVSSDWQGQICSSTDSDQCYLRETLEASKQVSPCSTRKQLQDQEIRAELNKHFGHPSQAVFDDEADKTGELRDSDFSNEQFSKLPMFINSGLAMDGLFDDSEDESDKLSYPWDGTQSYSLFNVSPSCSSFNSPCRDSVSPPKSLFSQRPQRMRSRSRSFSRHRSCSRSPYSRSRSRSPGSRSSSRSCYYYESSHYRHRTHRNSPLYVRSRSRSPYSRRPRYDSYEEYQHERLKREEYRREYEKRESERAKQRERQRQKAIEERRVIYVGKIRPDTTRTELRDRFEVFGEIEECTVNLRDDGDSYGFITYRYTCDAFAALENGYTLRRSNETDFELYFCGRKQFFKSNYADLDSNSDDFDPASTKSKYDSLDFDSLLKEAQRSLRR
Take B1: the binding result is given as “no binding”.
